± gives the standard deviation of the averaged measurements. The list shows a part of the results. Single values are uncertain, as repeats are few or missing.
Each molecule was assayed on RAW 264.7 macrophages infected with S. aureus JE2-lux (assay: host macrophage viability (CellTiter-Fluor) relative to DMSO vehicle; higher = more viable host cells). Conditions: 10 µM; treatment time 4 h; gentamicin 50 µg/ml.

Row | SMILES | host macrophage viability [%]
1 | COc1ccc2sc(Nc3cccc(Br)c3)nc2c1 | 107
2 | Fc1ccc(-c2ccc(/C=N/n3cnnc3)o2)cc1 | 127
3 | O=C(NCc1ccc(F)cc1)C1CCN(C(=O)Nc2cccc(Cl)c2)CC1 | 115
4 | CC(=O)Nc1cccc(NC(=O)C(=O)NCCSc2nc(-c3ccccc3)c[nH]2)c1 | 118
5 | COc1ccccc1CNC(=O)C1c2ccccc2C(=O)N1Cc1cccnc1 (stereo unspecified) | 116
6 | O=C(CSc1nnc2c3ccccc3nc(Cc3ccccc3)n12)Nc1nccs1 | 122
7 | COc1ccccc1CCNC(=O)c1c(O)nc2cc(C)ccn2c1=O | 114
8 | CCSc1nnc(NC(=O)CSc2nnc(C)c(=O)n2N)s1 | 122
9 | O=C1CCc2cc(S(=O)(=O)NCC(c3ccccc3)N3CCOCC3)ccc2N1 (stereo unspecified) | 126
10 | Cc1ccc2nnc(-c3ccccc3)c(C(=O)NCc3ccc4c(c3)OCO4)c2c1 | 122
11 | CCc1cccc(C)c1NC(=O)Cn1c(=O)c2cccnc2n(-c2ccccc2)c1=O | 109
12 | CN(C)c1ccc(NC(=O)CSc2nnc3c(n2)[nH]c2ccc(Cl)cc23)cc1 | 115
13 | COc1cc2cc(C#N)c(SCC(=O)Nc3ccc4c(c3)OCCO4)nc2cc1OC | 114
14 | Cc1ccc(-c2cc3c(N4CCC(C(=O)NC5CCCC5)CC4)nccn3n2)cc1C | 142
15 | CCc1nc2c(C)nc(Nc3ccccc3)nc2n1-c1ccccc1 | 120
16 | COc1ccc(OC)c2sc(N(Cc3ccncc3)C(=O)COc3ccc(Cl)cc3)nc12 | 123
17 | CC(=O)c1csc(NC(=O)Cn2nc(C(F)(F)F)c3c2CCCC3)n1 | 106
18 | CCS(=O)(=O)N1CCC(n2cnc3cccnc32)CC1 | 114
19 | CN1C(=O)/C(=N/NCc2ccccc2)c2ccccc21 | 127
20 | CC(=O)Nc1ccc(S(=O)(=O)Nc2ccc3c(c2)CCC(=O)N3)c(C)c1 | 103
21 | Cc1nc(Oc2ccc(F)cc2)c2c(C)c(C)sc2n1 | 106
22 | Cc1ccccc1-c1noc(-c2sc3nc[nH]c(=O)c3c2C)n1 | 132

Row | SMILES | host macrophage viability [%]
23 | Cc1cc(C)n2c(SCC(=O)Nc3cccc4ccccc34)nnc2n1 | 115
24 | Cc1cc2ccccc2n2c(=O)n(CC(C)NC(=O)c3ccc(C(N)=O)cc3F)nc12 (stereo unspecified) | 121
25 | CC(=O)Nc1ccc(C(=O)CSc2nc(O)c3c(C)cc(C)nc3n2)cc1 | 112
26 | Oc1cccc(C2=NN3C(C2)c2ccccc2OC3c2ccccn2)c1 (stereo unspecified) | 99.6
27 | Cc1ccc(NC(=O)c2cc(=O)c3ccccc3o2)c(C(=O)c2ccccc2)c1 | 101 ± 7.8
28 | Cc1ccc(C2NC(=O)NC3=C2C(=O)CC(C)(C)C3)cc1 (stereo unspecified) | 105
29 | COc1cc(/C=C2/S/C(=N/c3ccc(C)cc3)NC2=O)cc(OC)c1OC | 108
30 | Cn1c2ccc(Br)cc2c2nnc(SCC(=O)NCc3ccccc3)nc21 | 118
31 | CCOc1ccc(-n2nnnc2CNS(=O)(=O)c2ccc(F)cc2F)cc1 | 125
32 | CS(=O)(=O)c1ccc(S(=O)CC(=O)Oc2ccc(C3CCCCC3)cc2)c([N+](=O)[O-])c1 (stereo unspecified) | 92.2
33 | CC(=O)CC1(O)C(=O)N(CCOc2ccccc2)c2ccccc21 (stereo unspecified) | 143
34 | O=c1c2sccc2n2c(=S)[nH]nc2n1CC1CCCO1 (stereo unspecified) | 122
35 | CC(C(=O)Nc1nc2c(s1)CCc1c-2cnn1C)N1C(=O)CSC1=O (stereo unspecified) | 120
36 | O=C(NCc1cccnc1)c1cnc2ccc(F)cc2c1O | 114
37 | COc1cccc(-n2c(C)c(C)n3c4c(=O)n(CC(=O)OCc5ccccc5)c(=O)n(C)c4nc23)c1 | 106
38 | Cc1cccc(NC(=O)c2sc3nc(-c4ccccc4)cn3c2C)c1 | 126
39 | CN(c1ncnc(N)c1[N+](=O)[O-])C1CCCCC1 | 101
40 | Cc1ccc(CSc2nc(=O)n3ccc(C)cc3n2)cc1 | 102
41 | COc1cccc(CNC(=O)c2cc3n(n2)CCCN(Cc2ccccc2)C3=O)c1OC | 118
42 | Nc1cc(-c2ccco2)nn(CC(=O)N2CCOCC2)c1=O | 94.9
43 | Cc1cccc2cc(CN(Cc3ccccc3)C(=O)c3ccccc3F)c(Cl)nc12 | 114
44 | COC(=O)c1sc2ccccc2c1NC(=O)c1ccc2ncsc2c1 | 105

In the list so far, 4 have a Cl atom:
Row | SMILES | host macrophage viability [%]
3 | O=C(NCc1ccc(F)cc1)C1CCN(C(=O)Nc2cccc(Cl)c2)CC1 | 115
12 | CN(C)c1ccc(NC(=O)CSc2nnc3c(n2)[nH]c2ccc(Cl)cc23)cc1 | 115
16 | COc1ccc(OC)c2sc(N(Cc3ccncc3)C(=O)COc3ccc(Cl)cc3)nc12 | 123
43 | Cc1cccc2cc(CN(Cc3ccccc3)C(=O)c3ccccc3F)c(Cl)nc12 | 114

Next structures

Row | SMILES | host macrophage viability [%]
45 | CCc1cc2c(N3CCC(C(=O)NCCCN4CCN(C)CC4)CC3)ncnc2s1 | 98.6
46 | Cc1cc(C)nc(SCCS(=O)(=O)c2nc3ccccc3s2)n1 | 115
47 | O=C(NC1CCCCC1)c1c(O)nc2sccn2c1=O | 116
48 | Cn1c(=O)c2[nH]c(SCC(=O)c3ccc4c(c3)OCCO4)nc2n(C)c1=O | 109
49 | Cc1cc(Nc2ccc(F)c(Cl)c2)n2ncnc2n1 | 128
50 | O=C(Cc1ccc(-c2ccccc2)cc1)Nc1nnc2n1CCS2 | 115
51 | O=C1CN(S(=O)(=O)c2ccc(Br)cc2)c2ccccc2N1 | 106
52 | CCOC(=O)c1sc(NC(=O)C2=COCCO2)cc1C | 110
53 | CCC(Cc1ccccc1)Nc1nn2nnnc2c2ccccc12 (stereo unspecified) | 120
54 | O=C(Nc1ccc(F)cc1F)N1CCc2nc(N3CCCCC3)ncc2C1 | 121
55 | COc1cccc(C(=O)Nc2cc(=O)n(C)c(=O)n2C)c1 | 128
56 | CCc1nnc(NC(=O)c2nn(-c3ccc(C)cc3)c3c(=O)n(C)cnc23)s1 | 108
57 | Cc1cccc(-n2nnc(C(=O)Nc3ccccc3)c2C)c1 | 133
58 | O=C(CSc1ccc(-c2ccco2)nn1)Nc1cccc(F)c1 | 119
59 | COCCNc1nc(N)c([N+](=O)[O-])c(Nc2cccc(Cl)c2)n1 | 105
60 | Cc1ccc(S(=O)(=O)n2nc(-c3ccccc3Cl)nc2N)cc1 | 111
61 | CCOc1ccccc1NC(=O)C1CCN(c2ncnc3oc(C)c(C)c23)CC1 | 117
62 | O=C(CCCOc1ccc(Cl)cc1Cl)N/N=C1/C(=O)Nc2ccccc21 | 103 ± 5.8
63 | CCCCC(=O)Nc1ncc(Cc2ccc(Cl)c(Cl)c2)s1 | 110
64 | O=C(Cc1ccccc1)NNC(=O)CC1SC(=O)NC1=O (stereo unspecified) | 98
65 | O=C1c2ccncc2C(=O)N1CNc1ccccn1 | 120
66 | CCN(CC)CCN1C(=O)C(O)=C(C(=O)c2ccc(OC)cc2C)C1c1ccc(O)cc1 (stereo unspecified) | 115

Row | SMILES | host macrophage viability [%]
67 | CC(C)Oc1ccc(C(=O)Nc2cccc3c2C(=O)c2ccccc2C3=O)cc1 | 124
68 | Cc1cc(C)c2ccc(NC(=O)c3c(-c4ccncc4)noc3C)nc2n1 | 103
69 | CC(=O)c1ccc(NC(=O)c2ccc(S(=O)(=O)N3CCC(C)CC3)cc2)cc1 | 106
70 | Cc1cc(C)cc(-n2nc3c(c2NC(=O)/C=C\c2ccc4c(c2)OCO4)CSC3)c1 | 107
71 | O=C(O)c1cccnc1SC1CC(=O)N(c2ccc(Cl)cc2[N+](=O)[O-])C1=O (stereo unspecified) | 128
72 | O=C(CC1Nc2ccccc2NC1=O)Nc1ccc2c(c1)OCO2 (stereo unspecified) | 117
73 | O=C(O)CSc1ccc(S(=O)(=O)C(F)(F)F)cc1[N+](=O)[O-] | 101
74 | Cc1c(C(=S)Nc2ccccc2)cnn1-c1ccc([N+](=O)[O-])cc1 | 116
75 | CC(=O)c1cccc(NC(=O)Nc2nc(SCc3c(F)cccc3Cl)ns2)c1 | 120
76 | CCOC(=O)c1c(C)oc2c1/C(=C/NCc1ccccn1)C(=O)c1ccccc1-2 | 126
77 | O=C(COc1ccccc1)Nc1nc2ccccc2s1 | 108
78 | COCCCNC(=O)CN1CCN(c2ncc(NC(=O)c3ccc(Cl)cc3)cc2C(=O)O)CC1 | 116
79 | Cc1csc(-c2csc(S(=O)(=O)N3CCC(C)CC3)c2)n1 | 88.6
80 | CCOC(=O)c1sc(NC(=O)C2CC2)cc1C | 111 ± 2.4
81 | CCOc1ccc(NC(=O)c2cccnc2-c2ccsc2)cc1 | 114
82 | O=C(c1noc2ccc(S(=O)(=O)N3CCN(Cc4ccc5c(c4)OCO5)CC3)cc12)N1CCCC1 | 130
83 | Cc1nn(-c2nc3ccccc3[nH]2)c2c1C(c1ccccc1C(F)(F)F)CC(=O)N2 (stereo unspecified) | 106
84 | Cc1cc(C)c2nc(NNC(=O)COc3ccccc3)sc2c1 | 122 ± 11
85 | CCc1nnsc1C(=O)Nc1ncc([N+](=O)[O-])s1 | 91.9
86 | Cc1nc2c(ccc3nc(NC(=O)c4ccc(Br)s4)sc32)s1 | 125 ± 14
87 | COc1cc(C2C(C(=O)c3cccs3)=C(O)C(=O)N2c2nncs2)ccc1O (stereo unspecified) | 115
88 | Cc1ccc(C(C)C)c(OCCCN2C(=O)C(=O)c3cccc(C)c32)c1 | 113

Row | SMILES | host macrophage viability [%]
89 | Cc1cccc(CNc2ncnc3c2c(C)c(C)n3-c2ccc(Cl)cc2)c1 | 102
90 | CCc1cc2c(N3CCCC(C(=O)Nc4ccc5c(c4)OCCO5)C3)ncnc2s1 (stereo unspecified) | 125
91 | O=C(CN1CCC(n2cnc3cc(F)ccc32)CC1)Nc1nccs1 | 111
92 | Cc1c[nH]c(=O)nc1SCc1ccc([N+](=O)[O-])cc1 | 115
93 | CCOC(=O)c1sc(NC(=O)/C=C/c2ccc([N+](=O)[O-])s2)cc1C | 114.6 ± 1.1
94 | O=C(CSc1ncnc2c1cnn2-c1cccc(Cl)c1)NCc1ccc2c(c1)OCO2 | 114
95 | CCOC(=O)c1cnn(-c2ccc(C(=O)Nc3ccc(C(F)(F)F)cc3)cn2)c1N | 104
96 | COc1cccc2cc(C(=O)NC(C)=O)/c(=N/c3cccc4ccccc34)oc12 | 108 ± 13
97 | CCOC(=O)c1c(SCC(=O)Nc2ccc([N+](=O)[O-])cc2)nc(=O)[nH]c1C | 106
98 | O=C(OCn1nnc2ccccc2c1=O)C(c1ccccc1)c1ccccc1 | 103
99 | COc1ccc(NC(=O)CSc2nc(C)c(C)c(=O)[nH]2)cc1OC | 136
100 | O=C(CCCS(=O)(=O)c1ccccc1)Nc1nc2c(F)cc(F)cc2s1 | 135
101 | O=C(NCCC1CCCCN1S(=O)(=O)c1ccc(F)cc1)C(=O)NCc1ccc2c(c1)OCO2 (stereo unspecified) | 102
102 | O=C(Cn1c(=O)n(Cc2ccco2)c(=O)c2oc3ccccc3c21)Nc1ccc(Cl)cc1 | 116
103 | Cc1ccc(NC(=O)c2cc(S(=O)(=O)N3CCCCC3)ccc2F)cc1C | 123
104 | Cc1cc(N2CCc3ccccc32)nc(-n2cc([N+](=O)[O-])cn2)n1 | 109
105 | COc1ccc(C2CC(c3ccc(NS(C)(=O)=O)cc3)=NN2S(C)(=O)=O)cc1OC (stereo unspecified) | 102 ± 7.7
106 | CCOC(=O)C(C)Oc1cccc2c(=O)n(CC(=O)N3CCCCC3)ccc12 (stereo unspecified) | 117
